# Source: the supplement of paper PMC8975748
# Structures can show the parent of a compound that is named as a salt. ± gives the standard deviation of the averaged measurements. The list shows a part of the results. Values are raw readings; no control value is given beside them.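 One yeast strain harboring four plasmids, each bearing a fluorescent protein plus an amino-acid or uracil synthesis gene, founds the community. Random loss of plasmids produces mixed prototroph and auxotroph subpopulations. Cells were fixed, then counted with automated confocal fluorescence imaging, with DMSO-treated wells as vehicle reference.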
# Test system: Saccharomyces cerevisiae BY4741 SeMeCo community
# Experiment: imaged cell count per well (cells); higher = more cells
# Details: 10 µM; 24 h; SM minimal medium
# Description: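 Same SeMeCo high-content imaging drug screen: Selleck FDA-approved drugs at 10 µM, 24 h in SM medium, 384-well plates, 3 replicates.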
row,Compound,imaged cell count per well
1,CCCCCC(=O)O[C@]1(C(C)=O)CC[C@H]2[C@@H]3CCC4=CC(=O)CC[C@]4(C)[C@H]3CC[C@@]21C [Hydroxyprogesterone caproate],23200 ± 2200
2,COc1ccc2cc3[n+](cc2c1OC)CCc1cc2c(cc1-3)OCO2 [Berberine Sulfate],23000 ± 4400
3,CC/C(=C(\c1ccccc1)c1ccc(OCCN(C)C)cc1)c1ccccc1 [Tamoxifen],30100 ± 2500
4,CC(=O)NO [Acetohydroxamic acid],24200 ± 5300
5,Clc1ccc(COC(Cn2ccnc2)c2ccc(Cl)cc2Cl)c(Cl)c1 (configuration not stated) [Miconazole],3350 ± 770
6,COc1ncnc(NS(=O)(=O)c2ccc(N)cc2)c1OC [Sulfadoxine],20700 ± 2400
7,COc1nc2ccc(Br)cc2cc1[C@@H](c1ccccc1)[C@@](O)(CCN(C)C)c1cccc2ccccc12 [Bedaquiline fumarate],33000 ± 9700
8,C/C(=C\C(=O)OCCCCCCCCC(=O)O)C[C@@H]1OC[C@H](C[C@@H]2O[C@H]2[C@@H](C)[C@H](C)O)[C@@H](O)[C@H]1O [Mupirocin calcium],26200 ± 3400
9,CO/N=C(\C(=O)N[C@@H]1C(=O)N2C(C(=O)O)=C(CSc3nc(C)c(CC(=O)O)s3)CS[C@H]12)c1csc(N)n1 [Cefodizime Sodium],27500 ± 4900
10,Oc1ccc([C@H]2COc3cc(O)ccc3C2)cc1 [Equol],24200 ± 3000
11,CO/N=C(\C(=O)N[C@@H]1C(=O)N2C(C(=O)O)=CCS[C@H]12)c1csc(N)n1 [Ceftizoxime],23400 ± 4300
12,O=C(O)CCC(=O)c1ccc(-c2ccccc2)cc1 [Fenbufen],18700 ± 4600
